# In the supplement of paper PMC12024529:
# Counter-ions that a name gives are not always drawn. This is one part of the list. Plates or batches differ in their baseline, so values are only roughly comparable.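 The cells are HEK293 lines stably expressing B-domain-deleted factor VIII fused to Gaussia luciferase, either wild type or a misfolding-prone missense mutant. Each score is mean luminescence from triplicate wells minus the DMSO mean, divided by the DMSO standard deviation; a score of 2 or more counts as a hit, and low scores may reflect lower secretion or poorer cell viability.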
# Legend:
# HEK293 WT BDD-FVIII-Gluc = test: secreted FVIII-Gluc luciferase Z-score vs DMSO control; higher = more FVIII-Gluc secretion; conditions: 5 µM; 24 h
# [1] = tested on: HEK293 p.N1941S BDD-FVIII-Gluc; test: as above; conditions: 5 µM; 24 h
Structure (SMILES),secreted FVIII-Gluc luciferase Z-score (HEK293 WT BDD-FVIII-Gluc),secreted FVIII-Gluc luciferase Z-score [1]
CCN(CC)CCNC(C(=O)OCCC(C)C)c1ccccc1 (configuration not stated) [Camylofin Chlorhydrate],inactive: 0.0508,inactive: 1.02
CC(=O)O[C@]1(C(C)=O)CC[C@H]2[C@@H]3C[C@H](C)C4=CC(=O)CC[C@]4(C)[C@H]3CC[C@@]21C [Medroxyprogesterone acetate],active: 4.35,inactive: 0.32
O=C(NC(Cc1cc(=O)[nH]c2ccccc12)C(=O)O)c1ccc(Cl)cc1 (configuration not stated) [Rebamipide],inactive: -0.48,inactive: 1.52
COc1ccc(Cl)cc1C(=O)NCCc1ccc(S(=O)(=O)NC(=O)NC2CCCCC2)cc1 [Glyburide (Diabeta)],inactive: -2.88,inactive: -0.748
OCCN(CCO)c1nc(N2CCCCC2)c2nc(N(CCO)CCO)nc(N3CCCCC3)c2n1 [Dipyridamole (Persantine)],inactive: -0.0358,inactive: -0.917
"CC[C@H]1OC(=O)[C@H](C)[C@@H](O[C@H]2C[C@@](C)(OC)[C@@H](O)[C@H](C)O2)[C@H](C)[C@@H](O[C@@H]2O[C@H](C)C[C@H](N(C)C)[C@H]2O)[C@](C)(OC)C[C@@H](C)C(=O)[C@H](C)[C@@H](O)[C@]1(C)O [Clarithromycin (Biaxin, Klacid)]",inactive: -0.216,inactive: -2.65
CCCc1nc(C(C)(C)O)c(C(=O)OCc2oc(=O)oc2C)n1Cc1ccc(-c2ccccc2-c2nnn[nH]2)cc1 [Olmesartan medoxomil (Benicar)],inactive: -0.173,inactive: -2.68
"CO[C@H]1/C=C/O[C@@]2(C)Oc3c(C)c(O)c4c(O)c(c(/C=N/N5CCN(C)CC5)c(O)c4c3C2=O)NC(=O)/C(C)=C\C=C\[C@H](C)[C@H](O)[C@@H](C)[C@@H](O)[C@@H](C)[C@H](OC(C)=O)[C@@H]1C [Rifampin (Rifadin, Rimactane)]",inactive: -1.18,inactive: -0.0868
O=C(O)c1cccnc1Nc1cccc(C(F)(F)F)c1 [Niflumic acid],active: 2.11,inactive: -0.0255
COc1ccc2c(c1)c(CC(=O)OCC(=O)O)c(C)n2C(=O)c1ccc(Cl)cc1 [Acemetacin (Emflex)],inactive: -1.74,inactive: -1.85
CCCC1O[C@@H]2C[C@H]3[C@@H]4CCC5=CC(=O)C=C[C@]5(C)[C@H]4[C@@H](O)C[C@]3(C)[C@]2(C(=O)CO)O1 (some centres not stated) [Budesonide],inactive: -0.397,inactive: -1.87
CCN(CC)CCOCCOC(=O)C(CC)(CC)c1ccccc1 [Oxeladin Citrate],inactive: -2.72,inactive: -0.598
Cn1c([N+](=O)[O-])cnc1COC(N)=O [Ronidazole],inactive: -1.08,inactive: -0.565
Nc1c2c(nc3ccccc13)CCCC2 [Tacrine HCl],inactive: -0.717,inactive: 1.99
CC1=C(/C=C/C(C)=C/C=C/C(C)=C\C(=O)O)C(C)(C)CCC1 [Isotretinoin],active: 3.38,inactive: -0.857
CCOC(=O)c1c(CSc2ccccc2)n(C)c2cc(Br)c(O)c(CN(C)C)c12 [Arbidol HCl],inactive: -2.66,inactive: -2.05
CC1CC(OC(=O)C(O)c2ccccc2)CC(C)(C)C1 (configuration not stated) [Cyclandelate],inactive: 1.14,inactive: 0.644
CC1(C)S[C@@H]2[C@H](NC(=O)[C@H](NC(=O)N3CCNC3=O)c3ccccc3)C(=O)N2[C@H]1C(=O)O [Azlocillin sodium salt],inactive: -1.31,inactive: -0.0124
CC(=O)N[C@H]1[C@H]([C@H](O)[C@H](O)CO)OC(C(=O)O)=C[C@@H]1NC(=N)N [Zanamivir],inactive: -0.512,inactive: 0.622
Cc1cnc(C(=O)O)c[n+]1[O-] [Acipimox],inactive: 1.08,inactive: -0.932
"CC(=O)Oc1ccccc1C(=O)Nc1ncc([N+](=O)[O-])s1 [Nitazoxanide (Alinia, Annita)]",inactive: -1.96,inactive: -0.207

# Reprinted at random: two compounds from above, in no set order.
Structure (SMILES),secreted FVIII-Gluc luciferase Z-score (HEK293 WT BDD-FVIII-Gluc),secreted FVIII-Gluc luciferase Z-score [1]
COc1ccc2c(c1)c(CC(=O)OCC(=O)O)c(C)n2C(=O)c1ccc(Cl)cc1 [Acemetacin (Emflex)],inactive: -1.74,inactive: -1.85
Cn1c([N+](=O)[O-])cnc1COC(N)=O [Ronidazole],inactive: -1.08,inactive: -0.565
